# The supplement of paper PMC6411743
# Chains of the proteins cited; added tags and fusions are not shown. Lines headed by an entry give the natural chain unless they say otherwise; changes in a name come on top.
# UniProt Q9NRY4: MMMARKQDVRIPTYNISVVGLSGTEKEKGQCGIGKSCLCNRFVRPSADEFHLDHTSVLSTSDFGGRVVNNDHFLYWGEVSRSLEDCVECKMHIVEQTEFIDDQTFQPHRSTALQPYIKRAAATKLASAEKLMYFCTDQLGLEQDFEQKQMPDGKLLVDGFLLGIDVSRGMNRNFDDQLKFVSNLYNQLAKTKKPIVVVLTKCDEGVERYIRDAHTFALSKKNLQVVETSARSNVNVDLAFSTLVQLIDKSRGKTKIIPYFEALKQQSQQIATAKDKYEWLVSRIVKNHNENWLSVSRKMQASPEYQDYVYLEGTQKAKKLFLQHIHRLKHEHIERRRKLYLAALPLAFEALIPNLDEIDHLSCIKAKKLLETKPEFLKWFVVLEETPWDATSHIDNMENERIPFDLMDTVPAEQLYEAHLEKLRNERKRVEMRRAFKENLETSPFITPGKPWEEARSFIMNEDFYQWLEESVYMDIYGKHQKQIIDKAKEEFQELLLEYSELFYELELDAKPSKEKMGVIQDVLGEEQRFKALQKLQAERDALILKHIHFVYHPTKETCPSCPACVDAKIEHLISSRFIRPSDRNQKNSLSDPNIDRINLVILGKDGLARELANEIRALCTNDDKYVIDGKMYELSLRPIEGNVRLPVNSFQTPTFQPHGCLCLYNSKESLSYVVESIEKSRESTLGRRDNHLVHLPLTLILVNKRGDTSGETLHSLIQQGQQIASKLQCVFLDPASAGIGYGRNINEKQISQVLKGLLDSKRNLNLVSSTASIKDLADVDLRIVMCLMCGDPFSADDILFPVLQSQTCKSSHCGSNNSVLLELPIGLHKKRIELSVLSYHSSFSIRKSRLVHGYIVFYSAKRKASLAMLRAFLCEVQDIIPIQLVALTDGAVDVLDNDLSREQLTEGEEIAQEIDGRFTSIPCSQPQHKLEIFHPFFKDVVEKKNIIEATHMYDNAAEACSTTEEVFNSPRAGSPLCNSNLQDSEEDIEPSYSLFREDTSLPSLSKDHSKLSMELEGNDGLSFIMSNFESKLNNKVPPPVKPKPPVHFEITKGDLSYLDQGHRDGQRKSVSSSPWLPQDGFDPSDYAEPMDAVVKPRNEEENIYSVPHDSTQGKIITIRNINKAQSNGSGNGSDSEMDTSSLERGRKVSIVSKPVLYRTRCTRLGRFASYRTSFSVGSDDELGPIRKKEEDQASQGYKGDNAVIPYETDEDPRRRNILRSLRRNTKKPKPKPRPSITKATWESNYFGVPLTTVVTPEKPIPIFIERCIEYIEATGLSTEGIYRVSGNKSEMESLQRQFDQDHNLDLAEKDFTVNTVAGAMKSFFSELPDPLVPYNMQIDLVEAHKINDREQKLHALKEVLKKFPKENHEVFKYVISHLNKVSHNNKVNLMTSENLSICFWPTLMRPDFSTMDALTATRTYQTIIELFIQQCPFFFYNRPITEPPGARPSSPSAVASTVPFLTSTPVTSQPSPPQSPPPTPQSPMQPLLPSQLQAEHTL
# UniProt Q9NR31: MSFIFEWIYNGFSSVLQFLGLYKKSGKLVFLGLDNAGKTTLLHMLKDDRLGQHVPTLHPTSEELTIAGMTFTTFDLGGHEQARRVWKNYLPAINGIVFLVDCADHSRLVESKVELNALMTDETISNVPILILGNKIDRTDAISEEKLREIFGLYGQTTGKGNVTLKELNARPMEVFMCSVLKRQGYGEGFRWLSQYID
# UniProt Q9NWY4: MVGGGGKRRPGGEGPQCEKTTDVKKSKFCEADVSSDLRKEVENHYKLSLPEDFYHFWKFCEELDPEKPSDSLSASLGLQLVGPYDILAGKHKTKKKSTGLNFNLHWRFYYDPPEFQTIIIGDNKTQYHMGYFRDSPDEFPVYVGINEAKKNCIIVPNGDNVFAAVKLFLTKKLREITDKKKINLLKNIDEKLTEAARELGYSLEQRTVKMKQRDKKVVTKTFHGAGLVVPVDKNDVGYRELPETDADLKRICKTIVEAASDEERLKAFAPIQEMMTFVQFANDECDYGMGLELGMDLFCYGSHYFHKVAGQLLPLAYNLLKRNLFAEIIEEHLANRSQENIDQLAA
# UniProt Q9NVK5: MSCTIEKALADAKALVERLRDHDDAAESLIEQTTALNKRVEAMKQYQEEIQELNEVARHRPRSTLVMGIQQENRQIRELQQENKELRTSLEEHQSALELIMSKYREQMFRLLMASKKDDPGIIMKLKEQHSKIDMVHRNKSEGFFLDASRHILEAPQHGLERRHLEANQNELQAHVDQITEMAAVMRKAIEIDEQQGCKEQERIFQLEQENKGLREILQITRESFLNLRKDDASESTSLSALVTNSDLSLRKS
# UniProt Q9NVM4: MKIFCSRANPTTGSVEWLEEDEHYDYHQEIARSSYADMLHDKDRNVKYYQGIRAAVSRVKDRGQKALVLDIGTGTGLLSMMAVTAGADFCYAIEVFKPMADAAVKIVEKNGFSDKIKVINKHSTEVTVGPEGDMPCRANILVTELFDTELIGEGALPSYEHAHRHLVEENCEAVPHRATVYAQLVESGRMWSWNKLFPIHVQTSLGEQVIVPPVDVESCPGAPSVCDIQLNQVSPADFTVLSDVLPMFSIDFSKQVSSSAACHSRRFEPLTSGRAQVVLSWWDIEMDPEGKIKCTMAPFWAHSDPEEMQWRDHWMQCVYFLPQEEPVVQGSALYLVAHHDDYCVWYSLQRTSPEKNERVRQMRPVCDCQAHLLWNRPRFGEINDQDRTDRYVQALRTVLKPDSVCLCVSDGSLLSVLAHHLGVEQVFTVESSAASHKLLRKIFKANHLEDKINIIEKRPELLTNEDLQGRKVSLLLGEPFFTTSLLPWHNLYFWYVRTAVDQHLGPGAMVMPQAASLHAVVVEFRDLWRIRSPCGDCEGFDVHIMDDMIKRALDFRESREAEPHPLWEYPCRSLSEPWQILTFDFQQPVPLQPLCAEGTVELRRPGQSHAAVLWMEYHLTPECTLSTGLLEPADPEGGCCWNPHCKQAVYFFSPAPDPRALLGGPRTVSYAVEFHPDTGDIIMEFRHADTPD
# UniProt Q9NQS1: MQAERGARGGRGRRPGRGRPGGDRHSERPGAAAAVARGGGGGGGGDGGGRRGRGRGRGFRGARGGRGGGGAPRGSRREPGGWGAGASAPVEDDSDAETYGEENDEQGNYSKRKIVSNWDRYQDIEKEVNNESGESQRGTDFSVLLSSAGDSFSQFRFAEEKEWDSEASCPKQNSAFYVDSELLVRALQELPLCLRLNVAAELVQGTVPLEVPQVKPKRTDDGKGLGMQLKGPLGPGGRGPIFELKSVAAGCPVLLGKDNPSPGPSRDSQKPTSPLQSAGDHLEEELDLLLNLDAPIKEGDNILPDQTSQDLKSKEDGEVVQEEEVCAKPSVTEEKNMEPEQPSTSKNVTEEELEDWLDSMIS
# UniProt Q9NUU7: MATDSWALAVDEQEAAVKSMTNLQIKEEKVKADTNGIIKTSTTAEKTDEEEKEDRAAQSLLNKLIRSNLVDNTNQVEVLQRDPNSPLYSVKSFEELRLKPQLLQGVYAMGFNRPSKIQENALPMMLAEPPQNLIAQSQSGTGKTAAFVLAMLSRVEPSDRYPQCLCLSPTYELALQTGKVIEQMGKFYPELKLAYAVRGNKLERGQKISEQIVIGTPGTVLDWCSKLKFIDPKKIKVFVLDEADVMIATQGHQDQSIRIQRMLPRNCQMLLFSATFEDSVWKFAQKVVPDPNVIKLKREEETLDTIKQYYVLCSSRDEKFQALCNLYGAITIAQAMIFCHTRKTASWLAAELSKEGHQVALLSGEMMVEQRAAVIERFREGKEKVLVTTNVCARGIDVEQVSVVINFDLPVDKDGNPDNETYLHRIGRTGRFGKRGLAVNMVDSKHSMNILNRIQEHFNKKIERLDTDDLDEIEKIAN
# UniProt Q9NX01: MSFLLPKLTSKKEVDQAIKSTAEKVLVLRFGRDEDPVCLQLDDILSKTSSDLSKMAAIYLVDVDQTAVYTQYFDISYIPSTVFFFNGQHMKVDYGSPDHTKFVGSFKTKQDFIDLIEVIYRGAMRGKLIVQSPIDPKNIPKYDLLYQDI
# UniProt Q9NW08: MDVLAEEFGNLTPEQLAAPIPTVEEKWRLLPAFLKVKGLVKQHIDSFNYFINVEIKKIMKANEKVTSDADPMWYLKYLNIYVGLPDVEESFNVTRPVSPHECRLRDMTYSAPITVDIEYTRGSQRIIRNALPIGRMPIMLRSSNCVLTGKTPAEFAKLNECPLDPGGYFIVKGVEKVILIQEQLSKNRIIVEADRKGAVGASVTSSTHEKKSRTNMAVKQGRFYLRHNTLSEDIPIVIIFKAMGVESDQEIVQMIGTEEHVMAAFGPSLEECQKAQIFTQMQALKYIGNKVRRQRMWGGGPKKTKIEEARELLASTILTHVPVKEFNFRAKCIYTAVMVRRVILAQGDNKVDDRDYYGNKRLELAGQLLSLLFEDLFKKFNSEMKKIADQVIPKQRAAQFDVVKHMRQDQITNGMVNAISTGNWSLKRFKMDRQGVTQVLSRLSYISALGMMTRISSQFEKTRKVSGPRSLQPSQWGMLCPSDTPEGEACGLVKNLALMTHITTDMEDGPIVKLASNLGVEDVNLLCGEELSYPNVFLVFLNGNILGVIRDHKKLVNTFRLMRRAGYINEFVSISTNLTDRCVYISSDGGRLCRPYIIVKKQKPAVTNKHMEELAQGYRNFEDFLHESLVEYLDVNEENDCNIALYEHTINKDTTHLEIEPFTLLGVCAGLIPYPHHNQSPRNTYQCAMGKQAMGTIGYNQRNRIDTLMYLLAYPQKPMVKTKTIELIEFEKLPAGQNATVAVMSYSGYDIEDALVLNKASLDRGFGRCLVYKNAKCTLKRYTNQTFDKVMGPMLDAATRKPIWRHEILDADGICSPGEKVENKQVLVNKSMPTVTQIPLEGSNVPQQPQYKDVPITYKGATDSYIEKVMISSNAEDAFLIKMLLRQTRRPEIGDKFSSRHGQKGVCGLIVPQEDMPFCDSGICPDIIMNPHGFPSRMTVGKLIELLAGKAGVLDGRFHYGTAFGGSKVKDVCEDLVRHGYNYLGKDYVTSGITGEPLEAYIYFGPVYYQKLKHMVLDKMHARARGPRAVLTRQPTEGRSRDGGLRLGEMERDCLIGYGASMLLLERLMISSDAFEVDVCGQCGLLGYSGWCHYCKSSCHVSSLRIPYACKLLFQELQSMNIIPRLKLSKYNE
# UniProt Q9NPQ8: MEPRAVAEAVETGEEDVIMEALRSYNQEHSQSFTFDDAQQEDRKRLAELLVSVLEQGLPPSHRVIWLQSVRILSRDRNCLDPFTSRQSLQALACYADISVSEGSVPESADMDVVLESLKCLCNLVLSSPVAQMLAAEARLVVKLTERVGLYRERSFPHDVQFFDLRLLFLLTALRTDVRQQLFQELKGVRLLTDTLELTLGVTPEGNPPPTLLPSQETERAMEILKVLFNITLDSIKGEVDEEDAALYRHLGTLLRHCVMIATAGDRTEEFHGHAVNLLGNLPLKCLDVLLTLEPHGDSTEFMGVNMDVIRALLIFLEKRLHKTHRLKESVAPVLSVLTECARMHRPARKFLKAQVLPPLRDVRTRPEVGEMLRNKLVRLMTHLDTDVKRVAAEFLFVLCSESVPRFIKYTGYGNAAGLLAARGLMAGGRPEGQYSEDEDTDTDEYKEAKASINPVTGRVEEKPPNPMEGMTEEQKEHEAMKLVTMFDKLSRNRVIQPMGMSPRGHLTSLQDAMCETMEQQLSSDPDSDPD
# UniProt Q9UBF2: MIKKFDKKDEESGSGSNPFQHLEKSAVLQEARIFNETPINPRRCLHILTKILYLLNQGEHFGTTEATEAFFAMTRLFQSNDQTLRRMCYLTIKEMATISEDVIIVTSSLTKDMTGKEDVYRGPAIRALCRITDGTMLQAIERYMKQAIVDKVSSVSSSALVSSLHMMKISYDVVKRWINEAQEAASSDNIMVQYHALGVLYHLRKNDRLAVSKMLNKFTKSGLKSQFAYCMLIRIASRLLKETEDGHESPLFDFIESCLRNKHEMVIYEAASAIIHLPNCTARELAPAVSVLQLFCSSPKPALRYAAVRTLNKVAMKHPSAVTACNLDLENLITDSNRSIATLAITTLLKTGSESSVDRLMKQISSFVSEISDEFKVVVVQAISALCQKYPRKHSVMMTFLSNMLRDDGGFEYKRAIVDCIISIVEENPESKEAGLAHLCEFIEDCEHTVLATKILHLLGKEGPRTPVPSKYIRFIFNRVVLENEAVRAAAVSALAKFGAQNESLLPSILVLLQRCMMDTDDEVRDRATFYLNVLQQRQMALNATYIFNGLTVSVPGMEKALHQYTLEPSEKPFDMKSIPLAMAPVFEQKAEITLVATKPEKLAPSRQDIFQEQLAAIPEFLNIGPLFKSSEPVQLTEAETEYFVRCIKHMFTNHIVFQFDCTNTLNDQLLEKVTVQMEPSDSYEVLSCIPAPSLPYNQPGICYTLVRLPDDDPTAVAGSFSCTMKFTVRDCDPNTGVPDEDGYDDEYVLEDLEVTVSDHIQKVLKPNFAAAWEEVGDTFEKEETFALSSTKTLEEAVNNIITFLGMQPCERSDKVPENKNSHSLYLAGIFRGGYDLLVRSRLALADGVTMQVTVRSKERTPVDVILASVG
# UniProt Q9P1F3: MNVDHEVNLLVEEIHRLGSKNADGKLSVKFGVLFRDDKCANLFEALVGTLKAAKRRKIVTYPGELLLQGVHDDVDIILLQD
# ± gives the standard deviation of the averaged measurements. The list shows a part of the results, in another mix than the full data. Small differences around the control level are noise.
# Compound: Nc1ncnc2c1ncn2[C@@H]1O[C@H](COP(=O)(O)OP(=O)(O)NP(=O)(O)O)[C@@H](O)[C@H]1O [adenylyl imidodiphosphate]
# Assay: NP40-soluble protein abundance relative to vehicle (solubility fold change) (ratio); higher = more soluble protein in presence of AMP-PNP
# Settings: concentration: 0.1mM
# In short: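 Jurkat crude lysate prepared with a Dounce homogeniser was treated at eight concentrations spanning 0.1 to 10 mM, 10 min at room temperature then 3 min at 37 °C. Solubilisation with 0.8% NP40 and benzonase and ultracentrifugation preceded TMT labelling of the supernatant for LC-MS/MS. Fold change against the detergent-processed vehicle was determined per replicate from vsn-normalised intensities, across three independent experiments.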
row,Target,NP40-soluble protein abundance
1,UniProt Q9NRY4,1.03 ± 0.035
2,UniProt Q9NR31 and related entries,0.972 ± 0.064
3,UniProt Q9P2D3 and related entries,1.01 ± 0.017
4,ATXN10 (UniProt Q9UBB4),0.986 ± 0.026
5,USE1 (UniProt Q9NZ43),0.979 ± 0.012
6,UniProt Q9NVX2 and related entries,0.992 ± 0.035
7,UniProt Q9NWY4,1.02 ± 0.023
8,KIF15 (UniProt Q9NS87),0.998 ± 0.013
9,UniProt Q9NVK5 and related entries,0.96 ± 0.029
10,UniProt Q9NVM4 and related entries,1.04 ± 0.021
11,UniProt Q9NXF7,0.98 ± 0.027
12,UniProt Q9NRL3 and related entries,0.987 ± 0.044
13,ACTR10 (UniProt Q9NZ32),1.01 ± 0.011
14,AVEN (UniProt Q9NQS1),0.964 ± 0.058
15,UniProt Q9NUU7 and related entries,1.06 ± 0.0087
16,ZNF219 (UniProt Q9P2Y4),0.99 ± 0.032
17,ABCF3 (UniProt Q9NUQ8),1.04 ± 0.028
18,UniProt Q9NSY1,1.03 ± 0.017
19,TXNL4B (UniProt Q9NX01),0.979 ± 0.027

row,Target,NP40-soluble protein abundance
1,UniProt Q9NUB1 and related entries,1 ± 0.031
2,UniProt Q9NYV4 and related entries,0.995 ± 0.029
3,KLC4 (UniProt Q9NSK0),1.01 ± 0.057
4,UniProt Q9NRG7-2|Q9NRG7,0.946 ± 0.054
5,UniProt Q9P0W2 and related entries,0.997 ± 0.051
6,UniProt Q9NZJ7 and related entries,0.982 ± 0.053
7,UniProt Q9NW08 and related entries,0.994 ± 0.024
8,UniProt Q9P0B6,1.02 ± 0.014
9,UniProt Q9NYF8 and related entries,0.9989 ± 0.0014
10,UniProt Q9NPQ8 and related entries,1.0724 ± 0.0002
11,FANCI (UniProt Q9NVI1),0.993 ± 0.019
12,COPG2 (UniProt Q9UBF2),1.02 ± 0.02
13,PAG1 (UniProt Q9NWQ8),0.993 ± 0.037
14,RTN4 (UniProt Q9NQC3),1.01 ± 0.03
15,MDN1 (UniProt Q9NU22),1.02 ± 0.012
16,PDP2 (UniProt Q9P2J9),0.977 ± 0.042
17,UniProt Q9P1F3,0.965 ± 0.031
18,UniProt Q9P035 and related entries,0.9512 ± 0.0088

# Same assay, conditions: concentration: 0.5mM
row,Target,NP40-soluble protein abundance
1,UniProt Q9NRY4,0.982 ± 0.049
2,UniProt Q9NR31 and related entries,0.931 ± 0.16
3,UniProt Q9P2D3 and related entries,1.01 ± 0.027
4,ATXN10 (UniProt Q9UBB4),1.02 ± 0.032
5,USE1 (UniProt Q9NZ43),1 ± 0.052
6,UniProt Q9NVX2 and related entries,0.972 ± 0.076
7,UniProt Q9NWY4,1 ± 0.041
8,KIF15 (UniProt Q9NS87),0.997 ± 0.038
9,UniProt Q9NVK5 and related entries,0.974 ± 0.032
10,UniProt Q9NVM4 and related entries,0.982 ± 0.039
11,UniProt Q9NXF7,0.974 ± 0.05
12,UniProt Q9NRL3 and related entries,0.977 ± 0.056
13,ACTR10 (UniProt Q9NZ32),0.993 ± 0.012
14,AVEN (UniProt Q9NQS1),0.986 ± 0.089
15,UniProt Q9NUU7 and related entries,1.04 ± 0.028
16,ZNF219 (UniProt Q9P2Y4),1.01 ± 0.038
17,ABCF3 (UniProt Q9NUQ8),0.997 ± 0.014
18,UniProt Q9NSY1,1.01 ± 0.021
19,TXNL4B (UniProt Q9NX01),1.02 ± 0.057

row,Target,NP40-soluble protein abundance
1,UniProt Q9NUB1 and related entries,0.975 ± 0.071
2,UniProt Q9NYV4 and related entries,1.02 ± 0.055
3,KLC4 (UniProt Q9NSK0),0.991 ± 0.07
4,UniProt Q9NRG7-2|Q9NRG7,0.91 ± 0.089
5,UniProt Q9P0W2 and related entries,0.973 ± 0.039
6,UniProt Q9NZJ7 and related entries,0.958 ± 0.055
7,UniProt Q9NW08 and related entries,0.965 ± 0.059
8,UniProt Q9P0B6,1.04 ± 0.013
9,UniProt Q9NYF8 and related entries,1.051 ± 0.005
10,UniProt Q9NPQ8 and related entries,1.04 ± 0.036
11,FANCI (UniProt Q9NVI1),1.02 ± 0.018
12,COPG2 (UniProt Q9UBF2),1.03 ± 0.024
13,PAG1 (UniProt Q9NWQ8),1.03 ± 0.069
14,RTN4 (UniProt Q9NQC3),1.03 ± 0.028
15,MDN1 (UniProt Q9NU22),0.966 ± 0.018
16,PDP2 (UniProt Q9P2J9),0.998 ± 0.051
17,UniProt Q9P1F3,0.955 ± 0.059
18,UniProt Q9P035 and related entries,0.967 ± 0.035
